Laboratory results published in patent US20070243191A1, “ANTI-HYPERPROLIFERATIVE THERAPIES TARGETING HDGF” (THE BOARD OF REGENTS OF THE UNIVERSITY OF TEXAS SYSTEM, priority 2005, published 2007).
No constants are given. Whether binding was seen depends on the method and setting. Some results given as binding are weak or reduced against the parent protein; the word gives no strength.

By UniProt entry, the sequences of proteins in these tests, tags left out. Where a name states a change or a piece, a line headed by the entry shows the natural chain unless it says otherwise.
UniProt P51859: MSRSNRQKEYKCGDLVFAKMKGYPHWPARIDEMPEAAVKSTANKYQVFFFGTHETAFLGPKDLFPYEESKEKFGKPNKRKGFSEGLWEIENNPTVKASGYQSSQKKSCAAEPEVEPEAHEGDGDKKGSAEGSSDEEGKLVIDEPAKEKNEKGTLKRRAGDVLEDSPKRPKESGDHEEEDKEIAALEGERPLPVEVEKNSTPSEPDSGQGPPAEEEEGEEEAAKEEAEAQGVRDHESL

Molecular target: murine HDGF (of the putative 'MiaPaca-2' line, believed to be M109 murine lung adenocarcinoma cells) (mouse) (UniProt P51859)
Test: immunoprecipitation from the putative 'MiaPaca-2' (murine) cells

binding: binds
B1: anti-HDGF monoclonal antibody H3 (antibody, V domains shown)
VH: QITLKQSGPGIVQPSQPVRLTCTFSGFSLSTSGIGVAWIRQPSGKGLEWLATIWWDDDNRYNPSLKSRLAVSKDTSNNQAFLNIITVETADTAIYYCAQIYDYAVGFAYWGQGTLVTVSA
VL: DIQMTQTTSSLSASLGDRVTISCRASQDISNYLNWYQQKPDGTVKLLIYYTSRLHSGVPSRFSGSGSGTDYSLTISNLEPDDIATYYCQQYGKLWTFGGGTKLEIK
